At least one compound was matched to its structure with a doubt left. Some results were stated once for a whole list of compounds, not compound by compound. Some ranges recur; such a range may be that of the whole group of compounds.
Legend:
[1] = test system: CEM cells; assay: MTT cell viability / cytotoxicity assay in CEM cells; format: cell-based, human
Experimental: Cell cultures. Acute lymphoblastic leukemia cell line CEM and mantle cell lymphoma cell line Granta were obtained from ATCC and cultured in RPMI-1640 (Thermo Fischer) with 10% FBS (HyClone), sodium piruvate (10 mM), HEPES (10 mM) and antibiotics (referred thereafter as complete medium; Thermo Fischer) (Ref 14; incorporated by reference in its entirety). Peripheral blood samples were collected from healthy volunteers. The ethical Committee of the Blokhin Cancer Research Center approved this study, written informed consents were provided. Mononuclear cell fraction was isolated by 1.077 g/ml Ficoll-Isopaque density-gradient centrifugation and cultured in the complete medium. Cells were pretreated with Rapa (0.1-5 uM), LY294002 (10-100 uM), WM (1-10 uM) and AZD8055 (0.1-2 uM) or vehicle for 6 h, then were treated for Dex (1-10 uM) or vehicle for 24-144 h as indicated.
Analysis of cell viability and apoptosis induction. Cell viability was assessed using the MTT assay as follows: cells were incubated at 37° C. for 3 h with 20 ul of MTT solution (5 mg/ml). Supernatant was discarded and 150 μL of 100% DMSO was added to each well. Optical density was measured at 495 nm using a microplate reader MultiScan MCC 340 (Labsystems). The IC50 values was calculated using Quest Graph IC50 Calculator free software. Isobolograms were constructed (Ref 15; incorporated by reference in its entirety). IC50 values of PI3K inhibitors or Dex as single agents were plotted as 1 on the x and y axes, respectively. Various concentrations of PI3K inhibitors and for Dex were combined. The IC50 values for each compound in the combination were calculated and plotted as a percentage of each single drug. The disposition of data points below, above or on the line of additivity indicates synergy, antagonism or additivity, correspondingly.
PI3K/Akt/mTOR inhibitors were developed as anti-cancer drugs. To assess whether and how PI3K/Akt/mTOR inhibitors interacted with Dex anti-lymphoma effects, experiments were conducted to evaluate the efficacy of the combined treatment in vitro using such readouts as cell viability (MTT test) and apoptosis (PARP cleavage and sub-G1-phase cell population determined by FACS).

[2] = test system: Dex-induced osteoporosis and skin atrophy; assay: Glucocorticoid-induced osteoporosis (GIOP) and skin atrophy model; format: in vivo, BALB/c female mice
Experimental: Glucocorticoid-induced osteoporosis (GIOP). GIOP was induced as described (18) by i.p. injection of Dex (10 mg/kg) in 12 weeks old BALB/c female mice (“Stolbovaya”, Moscow region, Russia) every 48 h for 5 weeks. 6 h prior to Dex, animals were treated i.p. with LY294002 (20 mg/kg), Rapamycin (5 mg/kg) of vehicle (30% PEG3350, 4% DMSO, 5% Tween-20 in PBS). Body weight was recorded twice a week.
Histological analysis and immunostaining. Xenograft and skin samples were fixed in formaldehyde, embedded in paraffin, sections were stained with hematoxylin and eosin. The bone samples after formaldehyde fixation were decalcinated in decalcination buffer (0.5 M EDTA, 0.7 mM NaOH, pH=7.0) for 14 days, then washed with PBS twice and further processed according to standard histology protocol. Ki67 and Caspase 3 were detected by immunostaining with antibodies to Ki-67 and Caspase-3 (Cell Signaling, San Jose, CA).
Morphometric analysis. Quantification of the epidermal width, dermal adipose thickness, bone thickness and cellularity of xenograft tissue was performed in sections stained with hematoxylin and eosin. At least 5 individual fields per slide of each individual sample/treatment (at least 50 images/treatment group) were analyzed using Axioplan2 microscope software (Carl Zeiss). The epidermal, dermal adipose, or bone thickness and cell density in treated animals is presented as % to control animals.
To test whether REDD1 inhibitors protect against systemic atrophic effects of Gcs, a model of Gcs-induced osteoporosis in Balb/c female mice was used (18) to assess atrophy in both bone and skin induced by high-dose i.p. Dex injections (10 mg/kg) every 48 h for 5 weeks. LY294002 (20 mg/kg), Rapa (5 mg/kg) or vehicle were injected 6 h prior animal treatment with Dex.

[3] = Dex 10 mg/kg i.p. every 48 h, 5 weeks, LY294002 20 mg/kg or Rapa 5 mg/kg 6 h prior

## O=c1cc(N2CCOCC2)oc2c(-c3ccccc3)cccc12 [LY294002]
[1]; combination with Dex, IC50 after 24 h treatment
  type of interaction with Dex (isobologram analysis), CEM cells: synergy
[1]; used alone for 6 days, LY294002 50 uM, AZD8055 1 uM, WM 10 uM, Dex 1 uM
  decrease of CEM survival: 70-90%
[2]; 5-week treatment, Dex 10 mg/kg, LY294002 20 mg/kg or Rapa 5 mg/kg 6 h prior to Dex
  RANKL/OPG ratio: significant decrease of RANKL/OPG ratio towards control level
[2]; [3]
  OPG expression in bone: up-regulation of OPG expression
  RANKL expression in bone: down-regulation of RANKL expression
[2]; Dex chronic treatment, LY294002 or Rapa 6 h prior to Dex
  expression of Col1a1 and Col2a1 in bone: restored
[2]; LY294002 20 mg/kg, Rapamycin 5 mg/kg, 6 h prior to Dex
  protection of skin from hypoplastic effects of Dex: partially protected skin

Reference: patent US20240058349A1, “PI3K INHIBITORS FOR PROTECTION AGAINST GLUCOCORTICOID-INDUCED ATROPHY” (Northwestern University, priority 2020, published 2024)
